According to patent US20030100114:
Protein sequences can lack the tags named with them.

How the values were obtained:
[1] = target: T1, NF-ATp (Rel domain) (Mus musculus) (UniProt Q60591); test: EMSA; conditions: protein translated in vitro; protein details: rabbit reticulocyte lysate TnT; label: 32P
T1 sequence (looked up, limits assumed): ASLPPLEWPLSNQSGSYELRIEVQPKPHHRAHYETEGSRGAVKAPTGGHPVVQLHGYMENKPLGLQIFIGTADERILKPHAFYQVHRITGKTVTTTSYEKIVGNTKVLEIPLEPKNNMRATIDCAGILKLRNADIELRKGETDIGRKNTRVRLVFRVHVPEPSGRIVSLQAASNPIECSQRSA

c-Maf (full-length) = target: T2, c-Maf (full-length) (UniProt P54843); test: activity in cells; conditions: IL-4 promoter CAT reporter transactivation in M12 cells; protein in cells; protein details: pMEX-Maf expression in M12 cells; only the site is given
T2 sequence (looked up): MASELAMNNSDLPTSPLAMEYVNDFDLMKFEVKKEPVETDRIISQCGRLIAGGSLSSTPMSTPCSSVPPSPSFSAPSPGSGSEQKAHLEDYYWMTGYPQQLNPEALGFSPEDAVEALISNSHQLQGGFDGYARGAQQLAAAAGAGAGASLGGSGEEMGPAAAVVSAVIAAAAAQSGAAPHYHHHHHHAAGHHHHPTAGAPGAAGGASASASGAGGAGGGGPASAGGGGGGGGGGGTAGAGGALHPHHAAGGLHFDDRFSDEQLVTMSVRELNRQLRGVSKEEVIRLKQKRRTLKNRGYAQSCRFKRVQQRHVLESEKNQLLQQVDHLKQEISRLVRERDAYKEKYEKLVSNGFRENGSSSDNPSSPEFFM

Sequence: CTCATTTTCCCTTGGTTTCAGCAACTTTAACTC (double strand) [IL-4 promoter -59 to -27 wild type]
- binding result [1]: binds
- activity on this sequence (c-Maf (full-length)): active
